From PubChem BioAssay AID504467 (National Center for Advancing Translational Sciences (NCATS), 2011)
About 7,700 (2.3%) of roughly 330,000 compounds were called active. Inconclusive results, whose numbers are uncertain, are shown with a selection of clear calls. Calls come from the whole dose curve; as a rule, active = well fitted inhibition curve with a large enough effect; inconclusive = small, poorly fitted or top-dose-only effect, or effect the other way; inactive = flat fitted curve, though single readings scatter. Potencies beside an inconclusive call are fits to weak or partial responses and may not hold up.

Experiment: qHTS screen for small molecules that inhibit ELG1-dependent DNA repair in human embryonic kidney (HEK293T) cells expressing luciferase-tagged ELG1; note: nearly all actives have a fitted effect of over 55% in size
Conditions: HEK293T ELG1-luciferase reporter, luminescence, 16 h, DNA damage induced by 5-fluorouridine; series mostly up to 46.1 µM
Method in brief: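 DMSO vehicle served as the neutral condition. Each well held 2,000 cells given 5-fluorouridine plus compound; after 16 hr at 37 °C/5% CO2, ONE-Glo was added and luciferase measured 30 min later.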
Potency is the fitted concentration of half-maximal effect.

SMILES | Potency
Cc1cc(-n2nnc3ccccc32)nc2ccccc12 | inconclusive: 29.1 µM [activator, single point]
COc1cc(C2C(C#N)=C(N)Oc3cc(N(C)C)ccc32)cc2c1OCO2 (configuration not stated) | inactive
O=C(COc1cc2oc(=O)c3c(c2cc1Cl)CCC3)Nc1cccnc1 | inconclusive: 9.2 µM [activator, partial curve]
O=C(Cc1c[nH]c2ccccc12)N1CCN(S(=O)(=O)c2cccc(Cl)c2Cl)CC1 | inconclusive: 29.1 µM [inhibitor, single point]
COc1ccc2nc(NC(=O)C3CC(=O)N(c4ccc5c(c4)OCCO5)C3)sc2c1 (configuration not stated) | inconclusive: 29.1 µM [inhibitor, single point]
NC(=O)c1cc2ccncc2c2ccccc12 | active: 1.3 µM
COc1ccc(-c2c(-c3cc(OC)cc(OC)c3)n(C)c3ccc(-c4ccc5c(c4)OCCO5)cc23)cc1 | inconclusive: 29.1 µM [activator, partial curve, poor fit]
CCC(=O)Nc1ccccc1C(=O)C(=O)Nc1ccccc1 | inconclusive: 18.4 µM [activator, partial curve, poor fit]
Cc1cc(N/C=C\c2nnnn2-c2ccc(F)cc2)no1 | inconclusive: 20.6 µM [activator, single point]
Nc1nc(-c2ccccc2)c(-c2ccc([N+](=O)[O-])cc2)s1 | inconclusive: 23.1 µM [inhibitor, single point]
COc1cc(C)c2occ(/C(C)=N\O)c2c1 | inconclusive: 13 µM [activator, single point]
COc1ccc(S(=O)(=O)N2CCOC23CCN(S(=O)(=O)c2c(C)cc(C)cc2C)CC3)cc1 | inconclusive: 13 µM [inhibitor, single point]
Cc1csc(SCC(=O)N(c2ccccc2)C(C)C)n1 | inactive
CNS(=O)(=O)c1ccc(NC(=O)c2cc(-c3ccncc3)nc3ccc(Cl)cc23)cc1 | inactive
O=C(Nc1cccc(Cl)c1)NC1CCCCC1 | inconclusive: 14.6 µM [activator, partial curve]
C=CCn1ccc(=NC=C(C#N)C#N)c2ccccc21 | inconclusive: 23.1 µM [activator, single point]
CC(=C/c1ccccc1)/C=N/NC(=O)c1cnccn1 | inconclusive: 18.4 µM [activator, partial curve]
Cc1c(OCC(F)(F)F)ccnc1CSc1nc2ccccc2[nH]1 | inconclusive: 18.4 µM [activator, partial curve]
CCOC(=O)c1c(C)n(OCc2ccccc2)c2ccc3nonc3c12 | inconclusive: 29.1 µM [inhibitor, single point]
COc1ccc(N2CCN(c3n[nH]c(N)n3)CC2)cc1 | inconclusive: 8.2 µM [activator, partial curve, poor fit]
CCOC(=O)c1c(C)nc2sc3c(=O)n(-c4ccc(C(C)=O)cc4)nnc3c2c1-c1ccc(OC)cc1 | inconclusive: 16.4 µM [inhibitor, single point]

SMILES | Potency
Oc1ccc2ccccc2c1/C=N/Nc1nnc(-c2ncc[nH]2)c2ccccc12 | inconclusive: 4.11 µM [inhibitor, full curve]
CCCCn1c(N)c(N(CC)C(=O)c2ccncc2)c(=O)[nH]c1=O | inconclusive: 13 µM [activator, partial curve, poor fit]
C=CCn1cnc2c(sc3nc(C)cc(C)c32)c1=O | inconclusive: 20.6 µM [activator, partial curve]
CSc1ccc(NC(=O)N2CC=C(n3c(=O)[nH]c4ccccc43)CC2)cc1 | active: 23.1 µM
CCc1ccccc1NC(=O)c1ccc(NCCc2ccccc2)c([N+](=O)[O-])c1 | inactive
Cc1cc(C)nc(SCc2nnc(SCC(=O)Nc3c(C)cccc3C)o2)n1 | inconclusive: 23.1 µM [inhibitor, partial curve, poor fit]
O=C(CN1CCc2ccccc21)Nc1ccc2c(c1)OCCCO2 | inconclusive: 18.3 µM [activator, partial curve, poor fit]
CCOC(=O)c1ccccc1NS(=O)(=O)c1ccc(C)cc1 | inconclusive: 29.1 µM [inhibitor, single point]
COc1ccc(-c2nc3c4ccccc4ccn3c2CN2CCCCC2)cc1 | inconclusive: 23.1 µM [inhibitor, partial curve, poor fit]
Cc1c(-c2ccccn2)c(=O)[nH]n1-c1ccc(F)cc1 | inconclusive: 2.06 µM [activator, partial curve]
Cc1c(NC(=O)c2cccc(NC(=O)COc3ccccc3C#N)c2)c(=O)n(-c2ccccc2)n1C | inconclusive: 2.31 µM [activator, partial curve, poor fit]
O=c1c2nnn(-c3ccccc3)c2ncn1C/C=C/c1ccccc1 | inactive
CCCCOC(=O)/C(=C/C=C/c1ccccc1)NC(=O)c1ccccc1 | inconclusive: 18.3 µM [inhibitor, single point]
CCn1cc([N+](=O)[O-])c(C(=O)Nc2nc(-c3ccc(C)cc3)c(C)s2)n1 | inconclusive: 23.1 µM [inhibitor, partial curve]
O=C(N/N=C/c1cccc(Cl)c1)C1CCCC1 | inconclusive: 20.6 µM [activator, single point]
Cc1cccn2c(=O)c(C=NCCO)c(Nc3ccc(Cl)cc3)nc12 | inactive
Cc1ccc(-n2c(=O)c3sccc3n(Cc3cc(=O)n4cc(Cl)ccc4n3)c2=O)cc1F | inactive
CCc1ccccc1NC(=O)CN(C)S(=O)(=O)c1ccc(-c2ccc(=O)[nH]n2)s1 | inconclusive: 20.6 µM [inhibitor, partial curve]
O=C(O)CCC(=O)NCc1cn(-c2ccccc2)nc1-c1cccc(Br)c1 | inactive
CCN(CC)CCCN(C(=O)c1ccccc1F)c1nc(-c2ccc(OC)cc2)cs1 | inactive
CCOc1cc(C(=S)N2CCN(C)CC2)ccc1OCC(=O)N1CCOCC1 | inconclusive: 1.16 µM [activator, single point]

Exported as tab-separated lines: three of the compounds above
SMILES	Potency
O=C(N/N=C/c1cccc(Cl)c1)C1CCCC1	inconclusive: 20.6 µM [activator, single point]
Cc1cccn2c(=O)c(C=NCCO)c(Nc3ccc(Cl)cc3)nc12	inactive
Cc1ccc(-n2c(=O)c3sccc3n(Cc3cc(=O)n4cc(Cl)ccc4n3)c2=O)cc1F	inactive
